Experimental data as given in the supplement of paper PMC10849652.
The other results are listed elsewhere or left out.

Chains of the proteins cited; added tags and fusions are not shown. Lines headed by an entry give the natural chain unless they say otherwise; changes in a name come on top.
UniProt Q8NBI6: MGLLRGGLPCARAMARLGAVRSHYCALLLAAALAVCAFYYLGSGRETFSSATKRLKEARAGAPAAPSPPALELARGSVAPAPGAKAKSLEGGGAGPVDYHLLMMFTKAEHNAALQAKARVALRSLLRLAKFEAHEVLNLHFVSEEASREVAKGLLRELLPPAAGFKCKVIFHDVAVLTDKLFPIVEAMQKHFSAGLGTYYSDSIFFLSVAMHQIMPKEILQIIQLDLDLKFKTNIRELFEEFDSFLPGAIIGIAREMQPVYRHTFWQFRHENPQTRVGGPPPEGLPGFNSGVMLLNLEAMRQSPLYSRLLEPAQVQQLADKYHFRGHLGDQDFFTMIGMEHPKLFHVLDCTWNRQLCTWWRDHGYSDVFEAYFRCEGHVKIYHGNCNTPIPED
UniProt Q86U90: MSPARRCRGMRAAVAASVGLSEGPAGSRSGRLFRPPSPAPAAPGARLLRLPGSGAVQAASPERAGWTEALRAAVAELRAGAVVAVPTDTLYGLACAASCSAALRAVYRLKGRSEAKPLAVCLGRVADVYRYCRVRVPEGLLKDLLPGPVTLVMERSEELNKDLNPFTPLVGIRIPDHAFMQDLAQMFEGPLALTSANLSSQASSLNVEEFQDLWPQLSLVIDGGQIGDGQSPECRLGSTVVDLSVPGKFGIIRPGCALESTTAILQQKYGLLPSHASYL
UniProt O43670: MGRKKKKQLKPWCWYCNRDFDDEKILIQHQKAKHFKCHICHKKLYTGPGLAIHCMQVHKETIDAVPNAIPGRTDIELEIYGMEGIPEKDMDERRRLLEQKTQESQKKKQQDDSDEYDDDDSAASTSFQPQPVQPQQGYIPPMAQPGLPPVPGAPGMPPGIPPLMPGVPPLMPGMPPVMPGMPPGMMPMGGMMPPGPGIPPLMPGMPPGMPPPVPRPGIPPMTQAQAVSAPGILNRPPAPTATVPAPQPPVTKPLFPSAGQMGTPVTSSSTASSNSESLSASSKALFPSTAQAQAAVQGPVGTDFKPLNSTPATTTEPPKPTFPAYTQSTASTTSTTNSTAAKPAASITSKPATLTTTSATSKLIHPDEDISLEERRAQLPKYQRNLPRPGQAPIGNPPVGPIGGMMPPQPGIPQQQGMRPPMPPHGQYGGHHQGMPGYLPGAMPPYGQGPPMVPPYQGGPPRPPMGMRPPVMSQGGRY
UniProt P16989, whole entry, looked up: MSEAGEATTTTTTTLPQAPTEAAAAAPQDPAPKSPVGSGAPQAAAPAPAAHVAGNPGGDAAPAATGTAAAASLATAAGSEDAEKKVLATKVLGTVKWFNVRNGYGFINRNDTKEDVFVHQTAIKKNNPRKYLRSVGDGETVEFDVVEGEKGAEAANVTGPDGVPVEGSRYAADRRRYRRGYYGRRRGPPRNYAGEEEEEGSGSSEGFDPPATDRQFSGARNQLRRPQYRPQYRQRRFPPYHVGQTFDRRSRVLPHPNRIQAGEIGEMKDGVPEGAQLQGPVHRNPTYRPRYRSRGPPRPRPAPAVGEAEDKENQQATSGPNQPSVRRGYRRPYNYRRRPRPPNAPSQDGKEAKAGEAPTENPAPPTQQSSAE
UniProt Q9H0D6: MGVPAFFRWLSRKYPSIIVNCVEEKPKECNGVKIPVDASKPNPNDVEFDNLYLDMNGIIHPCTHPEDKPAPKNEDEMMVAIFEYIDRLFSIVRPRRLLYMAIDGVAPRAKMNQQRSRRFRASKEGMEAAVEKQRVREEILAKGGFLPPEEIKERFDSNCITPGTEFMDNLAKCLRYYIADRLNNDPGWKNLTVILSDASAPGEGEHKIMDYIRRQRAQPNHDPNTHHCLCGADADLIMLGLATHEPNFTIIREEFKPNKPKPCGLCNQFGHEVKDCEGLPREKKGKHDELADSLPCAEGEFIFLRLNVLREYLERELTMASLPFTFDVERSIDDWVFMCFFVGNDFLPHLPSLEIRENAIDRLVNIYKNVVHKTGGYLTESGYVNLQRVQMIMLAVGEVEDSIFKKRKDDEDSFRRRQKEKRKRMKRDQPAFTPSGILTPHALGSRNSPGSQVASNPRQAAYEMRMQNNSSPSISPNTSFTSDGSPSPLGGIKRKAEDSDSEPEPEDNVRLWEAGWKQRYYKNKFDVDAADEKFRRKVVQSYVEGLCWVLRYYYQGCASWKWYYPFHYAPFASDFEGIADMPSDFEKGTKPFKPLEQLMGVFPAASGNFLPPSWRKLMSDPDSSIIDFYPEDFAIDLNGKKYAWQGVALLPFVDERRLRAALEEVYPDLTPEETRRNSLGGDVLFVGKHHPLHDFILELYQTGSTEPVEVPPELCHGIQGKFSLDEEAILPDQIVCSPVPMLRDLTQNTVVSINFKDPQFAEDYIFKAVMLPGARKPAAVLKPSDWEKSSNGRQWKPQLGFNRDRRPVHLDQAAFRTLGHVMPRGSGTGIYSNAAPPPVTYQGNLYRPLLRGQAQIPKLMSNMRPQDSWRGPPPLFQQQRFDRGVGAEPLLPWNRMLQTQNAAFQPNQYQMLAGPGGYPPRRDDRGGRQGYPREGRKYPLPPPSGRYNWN
UniProt O96006: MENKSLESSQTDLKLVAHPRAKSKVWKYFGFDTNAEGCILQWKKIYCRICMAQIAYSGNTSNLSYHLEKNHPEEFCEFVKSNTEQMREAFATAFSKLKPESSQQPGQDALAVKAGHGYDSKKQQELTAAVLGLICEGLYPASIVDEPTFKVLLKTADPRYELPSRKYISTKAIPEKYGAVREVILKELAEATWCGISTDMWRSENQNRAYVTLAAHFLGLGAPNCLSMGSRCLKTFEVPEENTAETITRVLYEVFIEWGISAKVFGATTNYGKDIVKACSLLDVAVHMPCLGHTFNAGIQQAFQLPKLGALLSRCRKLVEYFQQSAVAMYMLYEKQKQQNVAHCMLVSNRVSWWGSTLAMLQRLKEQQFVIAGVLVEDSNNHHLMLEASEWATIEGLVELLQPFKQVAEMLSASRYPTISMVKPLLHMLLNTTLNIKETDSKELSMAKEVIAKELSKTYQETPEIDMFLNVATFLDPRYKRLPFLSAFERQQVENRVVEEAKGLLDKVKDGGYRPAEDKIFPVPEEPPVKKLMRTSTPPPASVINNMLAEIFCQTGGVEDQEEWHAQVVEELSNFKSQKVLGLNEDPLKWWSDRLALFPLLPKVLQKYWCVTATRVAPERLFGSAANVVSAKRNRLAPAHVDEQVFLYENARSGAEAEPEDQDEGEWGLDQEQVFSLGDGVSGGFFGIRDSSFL
UniProt A4UGR9: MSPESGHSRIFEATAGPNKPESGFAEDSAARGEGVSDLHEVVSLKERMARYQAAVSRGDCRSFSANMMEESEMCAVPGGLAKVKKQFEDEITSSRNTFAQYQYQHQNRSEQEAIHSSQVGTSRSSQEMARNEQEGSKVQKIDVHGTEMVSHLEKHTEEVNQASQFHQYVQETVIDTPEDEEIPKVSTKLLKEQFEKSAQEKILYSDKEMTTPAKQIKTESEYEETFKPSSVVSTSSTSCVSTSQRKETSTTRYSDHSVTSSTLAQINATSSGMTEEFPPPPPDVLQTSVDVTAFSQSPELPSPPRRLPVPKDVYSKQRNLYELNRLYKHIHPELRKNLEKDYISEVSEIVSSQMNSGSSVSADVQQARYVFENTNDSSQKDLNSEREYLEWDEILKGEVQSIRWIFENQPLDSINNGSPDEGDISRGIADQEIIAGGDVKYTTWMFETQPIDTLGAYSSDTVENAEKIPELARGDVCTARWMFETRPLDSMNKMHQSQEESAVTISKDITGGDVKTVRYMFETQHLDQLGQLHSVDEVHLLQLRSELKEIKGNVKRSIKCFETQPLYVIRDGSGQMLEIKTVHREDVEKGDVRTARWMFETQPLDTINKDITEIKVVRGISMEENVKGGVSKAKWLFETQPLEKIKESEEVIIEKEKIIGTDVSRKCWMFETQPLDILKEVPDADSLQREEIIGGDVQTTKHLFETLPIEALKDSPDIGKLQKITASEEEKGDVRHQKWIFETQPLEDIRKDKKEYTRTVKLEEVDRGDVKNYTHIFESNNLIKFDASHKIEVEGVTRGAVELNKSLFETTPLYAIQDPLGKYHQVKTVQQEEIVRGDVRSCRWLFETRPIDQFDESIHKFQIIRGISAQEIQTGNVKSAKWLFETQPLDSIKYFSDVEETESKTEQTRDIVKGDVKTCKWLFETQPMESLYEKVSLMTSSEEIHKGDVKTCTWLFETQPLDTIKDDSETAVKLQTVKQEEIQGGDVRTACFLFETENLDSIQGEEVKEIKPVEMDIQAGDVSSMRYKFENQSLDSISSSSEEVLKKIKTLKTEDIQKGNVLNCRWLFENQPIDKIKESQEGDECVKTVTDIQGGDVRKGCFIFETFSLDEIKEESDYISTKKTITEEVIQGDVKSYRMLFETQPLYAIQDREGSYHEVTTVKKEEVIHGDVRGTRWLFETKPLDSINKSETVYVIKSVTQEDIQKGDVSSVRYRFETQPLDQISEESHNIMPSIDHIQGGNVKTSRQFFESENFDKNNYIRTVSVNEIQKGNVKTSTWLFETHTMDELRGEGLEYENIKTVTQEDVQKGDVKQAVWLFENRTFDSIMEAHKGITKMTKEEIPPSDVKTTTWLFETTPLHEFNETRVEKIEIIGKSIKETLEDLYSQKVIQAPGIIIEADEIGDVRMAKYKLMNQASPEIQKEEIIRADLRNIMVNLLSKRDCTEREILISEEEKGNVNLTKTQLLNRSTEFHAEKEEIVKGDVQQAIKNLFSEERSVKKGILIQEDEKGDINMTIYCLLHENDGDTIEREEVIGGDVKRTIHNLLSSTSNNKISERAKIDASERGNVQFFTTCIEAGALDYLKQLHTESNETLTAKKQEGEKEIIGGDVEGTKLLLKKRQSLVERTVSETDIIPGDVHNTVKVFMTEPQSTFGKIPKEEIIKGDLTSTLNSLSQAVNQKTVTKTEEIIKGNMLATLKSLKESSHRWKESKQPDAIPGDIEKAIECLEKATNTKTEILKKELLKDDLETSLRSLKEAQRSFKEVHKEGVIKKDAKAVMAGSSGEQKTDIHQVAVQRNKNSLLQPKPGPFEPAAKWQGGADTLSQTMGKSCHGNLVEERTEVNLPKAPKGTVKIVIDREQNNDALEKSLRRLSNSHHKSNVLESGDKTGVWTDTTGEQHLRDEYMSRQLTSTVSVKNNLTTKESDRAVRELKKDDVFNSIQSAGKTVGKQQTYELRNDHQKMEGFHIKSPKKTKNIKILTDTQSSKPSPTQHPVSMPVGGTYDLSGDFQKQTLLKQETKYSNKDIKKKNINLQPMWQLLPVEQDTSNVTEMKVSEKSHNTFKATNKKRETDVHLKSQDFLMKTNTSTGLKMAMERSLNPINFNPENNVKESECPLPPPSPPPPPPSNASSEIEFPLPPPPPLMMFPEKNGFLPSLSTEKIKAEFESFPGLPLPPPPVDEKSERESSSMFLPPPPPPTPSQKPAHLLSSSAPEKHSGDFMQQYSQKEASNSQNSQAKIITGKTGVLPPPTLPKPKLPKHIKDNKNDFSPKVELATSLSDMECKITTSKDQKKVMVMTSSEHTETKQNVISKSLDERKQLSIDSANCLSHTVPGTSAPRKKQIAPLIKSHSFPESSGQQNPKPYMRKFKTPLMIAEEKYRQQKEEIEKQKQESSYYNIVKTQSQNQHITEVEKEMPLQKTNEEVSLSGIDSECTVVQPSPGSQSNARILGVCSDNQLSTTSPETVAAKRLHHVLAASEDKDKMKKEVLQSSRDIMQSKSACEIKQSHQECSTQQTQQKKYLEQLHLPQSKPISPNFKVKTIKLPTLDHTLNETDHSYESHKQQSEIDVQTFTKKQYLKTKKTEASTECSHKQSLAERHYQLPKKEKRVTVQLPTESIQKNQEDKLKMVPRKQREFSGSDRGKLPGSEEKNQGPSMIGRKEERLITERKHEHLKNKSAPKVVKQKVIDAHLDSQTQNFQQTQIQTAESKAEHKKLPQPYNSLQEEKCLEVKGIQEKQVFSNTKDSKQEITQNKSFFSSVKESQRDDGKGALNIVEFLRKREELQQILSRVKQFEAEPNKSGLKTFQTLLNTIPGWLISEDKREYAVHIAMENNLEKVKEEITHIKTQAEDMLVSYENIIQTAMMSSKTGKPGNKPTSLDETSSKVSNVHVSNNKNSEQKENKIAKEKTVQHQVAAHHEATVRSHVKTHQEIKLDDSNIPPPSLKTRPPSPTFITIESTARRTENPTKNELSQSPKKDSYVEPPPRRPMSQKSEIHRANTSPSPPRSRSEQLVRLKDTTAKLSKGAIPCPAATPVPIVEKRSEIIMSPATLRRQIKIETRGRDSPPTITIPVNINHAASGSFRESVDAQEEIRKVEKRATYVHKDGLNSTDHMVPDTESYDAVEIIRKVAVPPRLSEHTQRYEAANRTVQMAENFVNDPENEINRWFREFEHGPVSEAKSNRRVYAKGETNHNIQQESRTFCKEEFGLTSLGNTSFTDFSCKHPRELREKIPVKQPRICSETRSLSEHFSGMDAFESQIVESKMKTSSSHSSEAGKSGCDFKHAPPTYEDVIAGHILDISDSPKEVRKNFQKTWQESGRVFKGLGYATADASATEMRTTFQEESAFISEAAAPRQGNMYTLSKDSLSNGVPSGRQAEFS

What was measured:
Assay in all cases: log2 fold change, soluble protein after heating vs DMSO (PISA); higher = thermal stabilisation; K562 cells, 10 uM, 30 min; active = over 0.2 and 3.5 SD of the protein, either way, in both replicates (recomputed)
[1] = compound: NC(=O)Nc1cc(-c2cccc(F)c2)sc1C(=O)N[C@H]1CCCNC1
Outline: (§1)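 K562 cells at 2×10^6 cells/mL were exposed to 10 μM compound for 30 min, then aliquots were heated for 3 min across 48°C-58°C, pooled, and extracted in PBS containing 0.5% NP-40 at 4°C. The supernatant after 21,000xg for 90 min was taken as soluble protein and measured by TMTpro 16plex LC-MS/MS with channel sums equalised. Thermal stability is reported relative to control samples, with values from duplicates. Fold changes are given on a log2 scale.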

[2] = compound: NC(=O)c1cnc(N[C@@H]2CCCC[C@@H]2N)nc1Nc1cccc(-n2nccn2)c1
Outline: as §1

[3] = compound: NC1(c2ccc(-c3nc4ccn5c(=O)[nH]nc5c4cc3-c3ccccc3)cc2)CCC1
Outline: as §1

[4] = compound: NCC(=O)Nc1ccc(-n2nc(C(F)(F)F)cc2-c2ccc3c(ccc4ccccc43)c2)cc1
Outline: as §1

entinostat = compound: Nc1ccccc1NC(=O)c1ccc(CNC(=O)OCc2cccnc2)cc1 [entinostat]
Outline: as §1

vorinostat = compound: O=C(CCCCCCC(=O)Nc1ccccc1)NO [vorinostat]
Outline: as §1

citarinostat = compound: O=C(CCCCCCNC(=O)c1cnc(N(c2ccccc2)c2ccccc2Cl)nc1)NO [citarinostat]
Outline: as §1

silmitasertib = compound: O=C(O)c1ccc2c(c1)nc(Nc1cccc(Cl)c1)c1ccncc12 [silmitasertib]
Outline: as §1

[5] = compound: O=C1NC(=O)C(c2cnc3ccccn23)=C1c1cn2c3c(cc(F)cc13)CN(C(=O)N1CCCCC1)CC2
Outline: as §1

[6] = compound: c1cc(OCCN2CCCCC2)cc(-c2n[nH]c3ccc(-c4nnc[nH]4)cc23)c1
Outline: as §1

entospletinib = compound: c1cn2cc(-c3ccc4cn[nH]c4c3)nc(Nc3ccc(N4CCOCC4)cc3)c2n1 [entospletinib]
Outline: as §1

Measured: log2 fold change

ZFYVE27 isoform 2 (UniProt Q5T4F4)
inactive: [1] -0.007 | [2] -0.071 | [3] -0.056 | [4] -0.127 | entinostat 0.015 | vorinostat 0.103 | citarinostat -0.006 | silmitasertib 0.033 | [5] -0.067 | [6] -0.154 | entospletinib 0.084

XPO4 (UniProt Q9C0E2)
inactive: [1] -0.023 | [2] -0.032 | [3] -0.086 | [4] -0.05 | entinostat 0 | vorinostat 0.009 | citarinostat 0.045 | silmitasertib 0.076 | [5] -0.048 | [6] -0.047 | entospletinib 0.021

ZBTB8OS (UniProt Q8IWT0)
inactive: [1] -0.016 | [2] -0.142 | [3] -0.198 | [4] -0.097 | entinostat 0.026 | vorinostat -0.014 | citarinostat -0.006 | silmitasertib 0.015 | [5] -0.081 | [6] -0.068 | entospletinib 0.124

ZFAND3 (UniProt Q9H8U3)
inactive: [1] 0.059 | [2] -0.097 | [3] -0.021 | [4] 0.038 | entinostat -0.007 | vorinostat 0.11 | citarinostat -0.009 | silmitasertib 0.015 | [5] -0.039 | [6] -0.04 | entospletinib 0.003

YAF2 isoform 5 (UniProt Q8IY57)
inactive: [1] -0.029 | [2] -0.044 | [3] 0.034 | [4] 0 | entinostat -0.054 | vorinostat 0.184 | citarinostat 0.103 | silmitasertib -0.048 | [5] 0.071 | [6] -0.27 | entospletinib -0.189

XXYLT1 (UniProt Q8NBI6)
inactive: [1] 0.018 | [2] -0.012 | [3] -0.009 | [4] 0.001 | entinostat 0.047 | vorinostat -0.004 | citarinostat 0 | silmitasertib 0.05 | [5] -0.04 | [6] -0.021 | entospletinib -0.013

ZC3HAV1 (UniProt Q7Z2W4)
inactive: [1] 0.065 | [2] 0.081 | [3] 0.246 | [4] 0.07 | entinostat 0.01 | vorinostat -0.015 | citarinostat -0.05 | silmitasertib 0.171 | [5] 0.279 | [6] -0.119 | entospletinib 0.252

2 neighbouring records out of the list so far, quoted:
ZBTB8OS (UniProt Q8IWT0)
inactive: [1] -0.016 | [2] -0.142 | [3] -0.198 | [4] -0.097 | entinostat 0.026 | vorinostat -0.014 | citarinostat -0.006 | silmitasertib 0.015 | [5] -0.081 | [6] -0.068 | entospletinib 0.124

ZFAND3 (UniProt Q9H8U3)
inactive: [1] 0.059 | [2] -0.097 | [3] -0.021 | [4] 0.038 | entinostat -0.007 | vorinostat 0.11 | citarinostat -0.009 | silmitasertib 0.015 | [5] -0.039 | [6] -0.04 | entospletinib 0.003

Continued.

XPR1 (UniProt Q9UBH6)
inactive: [1] -0.042 | [2] -0.016 | [3] -0.027 | [4] 0.008 | entinostat 0.023 | vorinostat 0.049 | citarinostat -0.01 | silmitasertib -0.009 | [5] -0.059 | [6] -0.056 | entospletinib -0.025

YRDC (UniProt Q86U90)
inactive: [1] -0.067 | [2] -0.04 | [3] -0.057 | [4] -0.023 | entinostat 0.003 | vorinostat -0.008 | citarinostat 0.053 | silmitasertib -0.019 | [5] 0.004 | [6] -0.004 | entospletinib -0.02

YEATS4 (UniProt O95619)
inactive: [1] -0.026 | [2] 0.049 | [3] 0.03 | [4] 0.065 | entinostat -0.009 | vorinostat -0.036 | citarinostat -0.052 | silmitasertib -0.013 | [5] -0.118 | [6] -0.047 | entospletinib 0.028

YKT6 (UniProt O15498)
inactive: [1] -0.01 | [2] -0.029 | [3] -0.042 | [4] -0.006 | entinostat -0.027 | vorinostat -0.017 | citarinostat 0.015 | silmitasertib -0.021 | [5] -0.074 | [6] -0.019 | entospletinib 0.028

ZMPSTE24 (UniProt O75844)
inactive: [1] 0.018 | [2] -0.008 | [3] 0.02 | [4] 0.035 | entinostat 0.004 | vorinostat -0.049 | citarinostat 0.033 | silmitasertib 0.01 | [5] 0.036 | [6] -0.018 | entospletinib -0.007

ZNF207 isoform 2 (UniProt O43670)
inactive: [1] -0.142 | [2] -0.266 | [3] -0.113 | [4] -0.124 | entinostat 0.061 | vorinostat 0.065 | citarinostat 0.008 | silmitasertib 0.043 | [5] 0.146 | [6] -0.163 | entospletinib -0.155

YBX3 (UniProt P16989)
inactive: [1] -0.012 | [2] 0.136 | [3] 0.322 | [4] 0.063 | entinostat -0.106 | vorinostat -0.018 | citarinostat -0.118 | silmitasertib 0.123 | [5] 0.209 | [6] -0.144 | entospletinib 0.195

YDJC (UniProt A8MPS7)
inactive: [1] -0.014 | [2] -0.002 | [3] -0.046 | [4] 0.031 | entinostat 0.017 | vorinostat 0.013 | citarinostat -0.025 | silmitasertib 0.083 | [5] -0.087 | [6] -0.019 | entospletinib 0.078

XRN2 (UniProt Q9H0D6)
inactive: [1] -0.05 | [2] -0.002 | [3] 0.002 | [4] 0.013 | entinostat -0.04 | vorinostat 0.025 | citarinostat 0.047 | silmitasertib 0.025 | [5] 0.01 | [6] 0.015 | entospletinib -0.038

YIPF3 (UniProt Q9GZM5)
inactive: [1] 0.042 | [2] 0.013 | [3] -0.027 | [4] -0.049 | entinostat -0.02 | vorinostat -0.03 | citarinostat 0.039 | silmitasertib 0.005 | [5] 0.004 | [6] -0.021 | entospletinib 0.028

ZC3H14 (UniProt Q6PJT7)
inactive: [1] 0.095 | [2] 0.096 | [3] 0.021 | [4] -0.072 | entinostat -0.051 | vorinostat -0.04 | citarinostat -0.012 | silmitasertib -0.002 | [5] 0.129 | [6] 0.046 | entospletinib -0.046

ZFYVE16 (UniProt Q7Z3T8)
inactive: [1] -0.068 | [2] -0.038 | [3] -0.079 | [4] 0.007 | entinostat -0.024 | vorinostat -0.017 | citarinostat -0.01 | silmitasertib 0.002 | [5] -0.066 | [6] -0.019 | entospletinib 0.03

ZBTB17 isoform 2 (UniProt Q13105)
inactive: [1] -0.032 | [3] -0.143 | entinostat -0.14 | silmitasertib 0.023

ZBED1 (UniProt O96006)
inactive: [1] -0.066 | [2] -0.088 | entinostat 0.069 | [5] -0.255

ZDHHC14 (UniProt Q8IZN3)
inactive: [1] -0.14 | [2] -0.155 | [3] 0.097 | [4] 0.025 | entinostat -0.087 | citarinostat -0.095 | silmitasertib -0.018 | [5] -0.034 | [6] 0.137 | entospletinib -0.185

XIRP2 isoform 8 (UniProt A4UGR9)
inactive: [1] -0.155 | [2] -0.021 | [3] -0.076 | entinostat -0.003 | vorinostat -0.119 | citarinostat 0.034 | silmitasertib 0.053 | [6] -0.106 | entospletinib -0.051

YIPF1 (UniProt Q9Y548)
inactive: [1] -0.172 | [3] -0.002 | [4] -0.001 | entinostat -0.112 | citarinostat 0.053 | silmitasertib 0.026 | [6] 0.116 | entospletinib -0.014

ZBTB10 (UniProt Q96DT7)
inactive: [1] 0.029 | [2] 0.12 | [3] 0.077 | entinostat -0.007 | vorinostat -0.031 | citarinostat 0.116 | silmitasertib -0.023 | [5] 0.112 | [6] -0.111 | entospletinib 0.02

ZFPM1 (UniProt Q8IX07)
inactive: [1] 0.032 | [4] 0.05 | entinostat 0.009 | citarinostat 0.155 | [5] 0.021 | [6] -0.128 | entospletinib 0.04

XK (UniProt P51811)
inactive: [1] -0.025 | [2] 0.077 | [3] 0.092 | [4] -0.013 | entinostat -0.113 | vorinostat -0.023 | citarinostat -0.057 | silmitasertib -0.005 | [6] 0.003 | entospletinib 0.047
